This experiment concerns the target MUC1-C (extracellular MUC1-C construct expressed on cells) (human) (UniProt P15941). Nature of the experiment: epitope test by CAR-T degranulation against unmodified and MUC1-transfected cells, FIG. 15.

Sequences of proteins named here, by UniProt entry; tags and fusion partners are left off. A change or cut given only in a name is not applied to a line headed by its entry.
UniProt P15941: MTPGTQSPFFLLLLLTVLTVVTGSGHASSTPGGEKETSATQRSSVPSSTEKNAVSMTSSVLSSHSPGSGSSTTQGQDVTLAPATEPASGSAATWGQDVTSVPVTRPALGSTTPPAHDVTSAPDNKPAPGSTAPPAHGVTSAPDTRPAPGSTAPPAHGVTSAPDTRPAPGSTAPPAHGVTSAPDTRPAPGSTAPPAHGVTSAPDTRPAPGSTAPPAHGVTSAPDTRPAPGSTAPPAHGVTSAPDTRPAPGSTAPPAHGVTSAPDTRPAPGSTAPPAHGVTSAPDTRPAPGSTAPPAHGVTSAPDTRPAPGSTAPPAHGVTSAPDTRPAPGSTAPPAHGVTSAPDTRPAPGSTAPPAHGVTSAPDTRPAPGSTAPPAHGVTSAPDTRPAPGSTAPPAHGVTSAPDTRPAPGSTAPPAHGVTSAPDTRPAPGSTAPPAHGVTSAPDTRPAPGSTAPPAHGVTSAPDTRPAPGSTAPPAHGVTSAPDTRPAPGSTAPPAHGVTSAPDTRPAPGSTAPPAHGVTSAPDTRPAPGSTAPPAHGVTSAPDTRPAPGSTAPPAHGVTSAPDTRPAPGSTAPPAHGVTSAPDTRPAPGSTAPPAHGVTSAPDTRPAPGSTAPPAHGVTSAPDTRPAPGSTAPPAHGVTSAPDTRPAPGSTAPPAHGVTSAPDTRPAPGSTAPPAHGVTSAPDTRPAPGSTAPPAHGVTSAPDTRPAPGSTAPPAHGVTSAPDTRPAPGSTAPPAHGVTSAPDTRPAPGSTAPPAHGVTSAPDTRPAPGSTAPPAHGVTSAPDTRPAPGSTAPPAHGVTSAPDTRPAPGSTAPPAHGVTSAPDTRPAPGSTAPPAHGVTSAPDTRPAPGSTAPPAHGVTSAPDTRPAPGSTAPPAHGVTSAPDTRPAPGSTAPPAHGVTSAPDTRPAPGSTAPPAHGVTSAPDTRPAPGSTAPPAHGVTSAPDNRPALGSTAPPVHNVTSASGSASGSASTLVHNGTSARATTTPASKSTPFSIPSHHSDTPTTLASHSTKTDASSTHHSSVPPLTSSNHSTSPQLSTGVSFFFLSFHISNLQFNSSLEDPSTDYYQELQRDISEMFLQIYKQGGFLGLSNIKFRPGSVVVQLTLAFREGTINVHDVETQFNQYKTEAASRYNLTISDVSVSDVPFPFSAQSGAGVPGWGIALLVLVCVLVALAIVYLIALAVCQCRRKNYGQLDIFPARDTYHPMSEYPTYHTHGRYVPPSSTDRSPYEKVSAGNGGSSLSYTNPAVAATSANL

No constants are given. Whether binding was seen depends on the method and setting. Some entries that bind do so weakly or less than the wild type.

From patent US20190328784A1, “CHIMERIC ANTIGEN RECEPTORS (CARS) SPECIFIC FOR MUC1 AND METHODS FOR THEIR USE” (Poseida Therapeutics, Inc., priority 2016, published 2019) come the findings set out here.

B1: F1C-HL CAR (MUC1-scFv chimeric antigen receptor) (scFv, not shown: a dimerising Fc or GST)
scFv: QITLKESGPGILQPSQTLSLTCSFSGFSLSTSGMGVSWIRQPSGKGLEWLSHIYWDDDKRYNPSLKSRLSISKDTSRNQVFLKITSVDTADTATYYCAPGVSSWFPYWGPGTLVTVSAGGGGSGGGGSGGGGSSIVMTQTPKFLPVSAGDRVTVTCKASQSVGNYVAWYQQKPGQSPKLLIYFASNRYSGVPDRFTGSGSGTDFTFTISSVQVEDLAVYFCQQHYIFPYTFGSGTKLEIK
In the case of B1, the binding entry is “binds”.

B2: K2B-HL CAR (MUC1-scFv chimeric antigen receptor) (scFv, not shown: a dimerising Fc or GST)
scFv: QVQLKESGPGLVAPSQSLSMTCTVSGFSLTTYGVHWVRQPPGKGLEWLVVIWSDGSTTYNSPLKSRLSISRDNSKSQVFLKMNSLQADDTAIYYCAKNYLGSLDYWGQGTSVTVSSGGGGSGGGGSGGGGSDVVLTQTPLSLPVSLGDQASISCRSSQSLVHNNGDTYLHWYLQKPGQSPKLLIYKVSNRFSGVPDRFSGSGSGTDFTFKISRVEAEDLGVYFCSQTTHVPLTFGAGTKLELK
For B2, the binding entry is “binds”.
